Measurements reported in PMC9249922.
Results are given in words; binding and its absence hold for the method and conditions named. In cells and extracts the contact can be indirect. Some binding calls cover weakened binding; strength is not graded here.

The chains behind the UniProt entries cited, without tags or fusion partners. Where a name states a change or a piece, a line headed by the entry shows the natural chain unless it says otherwise. A line that says so, or that is headed by a name, gives the form on record, which may keep a tag or linker. Residues count along the entry.
UniProt P08581, residues 25-1390: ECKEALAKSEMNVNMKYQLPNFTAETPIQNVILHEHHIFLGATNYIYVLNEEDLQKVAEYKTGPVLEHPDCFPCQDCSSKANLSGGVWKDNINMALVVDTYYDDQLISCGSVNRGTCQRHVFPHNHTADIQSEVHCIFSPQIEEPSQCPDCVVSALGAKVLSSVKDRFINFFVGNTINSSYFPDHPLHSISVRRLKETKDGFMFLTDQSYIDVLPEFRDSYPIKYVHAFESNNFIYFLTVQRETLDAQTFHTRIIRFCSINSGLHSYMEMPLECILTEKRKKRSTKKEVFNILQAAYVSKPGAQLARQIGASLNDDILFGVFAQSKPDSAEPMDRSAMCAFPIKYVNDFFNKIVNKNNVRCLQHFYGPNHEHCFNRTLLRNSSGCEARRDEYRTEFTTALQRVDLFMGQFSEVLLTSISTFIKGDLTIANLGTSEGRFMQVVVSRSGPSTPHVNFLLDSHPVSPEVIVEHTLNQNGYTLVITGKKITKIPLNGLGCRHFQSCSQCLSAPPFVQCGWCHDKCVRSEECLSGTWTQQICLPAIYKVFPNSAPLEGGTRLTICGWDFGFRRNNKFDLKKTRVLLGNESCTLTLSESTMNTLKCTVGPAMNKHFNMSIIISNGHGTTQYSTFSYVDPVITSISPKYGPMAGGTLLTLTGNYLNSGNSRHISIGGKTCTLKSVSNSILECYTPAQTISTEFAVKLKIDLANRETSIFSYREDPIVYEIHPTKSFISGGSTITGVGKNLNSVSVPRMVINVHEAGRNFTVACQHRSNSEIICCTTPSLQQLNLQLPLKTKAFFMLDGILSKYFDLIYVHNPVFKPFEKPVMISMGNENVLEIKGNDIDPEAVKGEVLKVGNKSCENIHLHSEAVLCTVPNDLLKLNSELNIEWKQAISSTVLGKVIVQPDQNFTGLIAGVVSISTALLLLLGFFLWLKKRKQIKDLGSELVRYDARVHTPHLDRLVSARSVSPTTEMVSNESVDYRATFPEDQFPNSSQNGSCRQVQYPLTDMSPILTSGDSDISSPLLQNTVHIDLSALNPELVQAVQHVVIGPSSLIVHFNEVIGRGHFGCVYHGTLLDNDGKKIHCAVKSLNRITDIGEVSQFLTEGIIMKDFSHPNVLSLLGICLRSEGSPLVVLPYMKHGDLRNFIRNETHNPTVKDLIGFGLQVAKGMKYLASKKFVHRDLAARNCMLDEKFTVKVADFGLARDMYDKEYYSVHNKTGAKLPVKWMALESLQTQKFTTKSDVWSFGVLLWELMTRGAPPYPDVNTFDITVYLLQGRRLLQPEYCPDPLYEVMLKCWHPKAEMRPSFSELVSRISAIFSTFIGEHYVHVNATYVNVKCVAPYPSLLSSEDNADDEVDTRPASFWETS
Flag-HGF 4Cys-4Ala (in vitro translated) (P14210-1, form named): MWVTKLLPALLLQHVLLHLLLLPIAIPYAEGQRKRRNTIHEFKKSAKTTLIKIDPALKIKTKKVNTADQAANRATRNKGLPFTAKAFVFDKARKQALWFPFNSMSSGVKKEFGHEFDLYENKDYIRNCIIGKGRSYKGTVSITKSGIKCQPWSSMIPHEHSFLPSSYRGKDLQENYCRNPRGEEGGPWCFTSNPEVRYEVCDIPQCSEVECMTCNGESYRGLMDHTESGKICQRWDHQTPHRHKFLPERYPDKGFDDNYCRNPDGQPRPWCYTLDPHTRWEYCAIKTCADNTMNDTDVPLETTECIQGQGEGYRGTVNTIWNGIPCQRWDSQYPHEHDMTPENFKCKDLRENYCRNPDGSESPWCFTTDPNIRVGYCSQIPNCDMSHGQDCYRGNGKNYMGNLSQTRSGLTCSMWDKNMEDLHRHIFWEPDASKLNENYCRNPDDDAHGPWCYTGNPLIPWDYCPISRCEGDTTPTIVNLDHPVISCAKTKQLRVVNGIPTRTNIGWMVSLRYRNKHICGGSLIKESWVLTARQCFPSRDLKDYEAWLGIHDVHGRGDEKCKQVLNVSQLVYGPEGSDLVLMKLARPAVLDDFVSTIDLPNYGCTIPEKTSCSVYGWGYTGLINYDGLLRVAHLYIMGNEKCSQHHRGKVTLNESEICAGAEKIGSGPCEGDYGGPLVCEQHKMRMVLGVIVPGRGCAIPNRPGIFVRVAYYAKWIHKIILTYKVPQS

Target: endogenous c-MET (293T cells) (human (endogenous in 293T)) (UniProt P08581)
Test: pull-down; endogenous c-MET immunoprecipitated from 293T cells on anti-MET antibody-bound Dynabeads Protein G; in vitro translated Flag-HGF incubated with the bead-bound c-MET for 4 h at 4 °C; western blot; only the target purified

| binding | Substance |
| --- | --- |
| no binding | Flag-HGF 4Cys-4Ala (in vitro translated) (from UniProt P14210-1 1-728) (ligand) |
| binds | Flag-HGF WT (in vitro translated) (from UniProt P14210-1 1-728) (ligand) |
